The values below come from US20160090556A1, “PRODUCTS COMPRISING MALODOR REDUCTION MATERIALS” (The Procter & Gamble Company, priority 2014, published 2016).

The first series can be described thus: Melamine formaldehyde PMC leakage.
Conditions: not given
Consider `O=C(OCCc1ccccc1)c1ccccc1` [Material 967], for which the “Melamine formaldehyde PMC leakage (Comment Code J)” value is recorded as “J (Melamine formaldehyde PMC leakage less than or equal to 5%)”.

`CC1=CCC(CCC(C)CO)C1(C)C` (stereo not shown) [Material 600]: the “Melamine formaldehyde PMC leakage (Comment Code J)” value is “J (Melamine formaldehyde PMC leakage less than or equal to 5%)”.

For `CCCCOC(=O)C(C)OC(=O)CCC` (stereo not shown) [Material 595], the “Melamine formaldehyde PMC leakage (Comment Code J)” value was “J (Melamine formaldehyde PMC leakage less than or equal to 5%)”.

For `C=C(C)C1CCC2(C)CCC=C(C)C2C1` (stereo not shown) [Material 692], the “Melamine formaldehyde PMC leakage (Comment Code J)” value is “J (Melamine formaldehyde PMC leakage less than or equal to 5%)”.

On to `CC1=CC(=O)CC(C)C12CCC(=C(C)C)C2` (stereo not shown) [Material 610], for which the “Melamine formaldehyde PMC leakage (Comment Code J)” value is “J (Melamine formaldehyde PMC leakage less than or equal to 5%)”.

As to `COCCOC(C)OCc1ccccc1` (stereo not shown) [Material 768], the “Melamine formaldehyde PMC leakage (Comment Code J)” value is on record as “J (Melamine formaldehyde PMC leakage less than or equal to 5%)”.

As for `CCCCCCCCCCO` [Material 868], the “Melamine formaldehyde PMC leakage (Comment Code J)” value is recorded as “J (Melamine formaldehyde PMC leakage less than or equal to 5%)”.

For `CC(C)(O)CCc1ccccc1` [Material 639], the “Melamine formaldehyde PMC leakage (Comment Code J)” value was “J (Melamine formaldehyde PMC leakage less than or equal to 5%)”.

Turning to `CC(OC(C)(C)COC(=O)C1CC1)C1CCCC(C)(C)C1` (stereo not shown) [Material 1032], the “Melamine formaldehyde PMC leakage (Comment Code J)” value is recorded as “J (Melamine formaldehyde PMC leakage less than or equal to 5%)”.

Regarding `CC(=CCCC1(C)C2CC3C(C2)C31C)CO` (stereo not shown) [Material 694], the “Melamine formaldehyde PMC leakage (Comment Code J)” value is reported as “J (Melamine formaldehyde PMC leakage less than or equal to 5%)”.

On to `COC1(C)CCC23CC1C(C)(C)C2CCC3C` (stereo not shown) [Material 565], for which the “Melamine formaldehyde PMC leakage (Comment Code J)” value is on record as “J (Melamine formaldehyde PMC leakage less than or equal to 5%)”.

Turning to `C=C1C=CC(C(C)CCC=C(C)C)CC1` (stereo not shown) [Material 614], the “Melamine formaldehyde PMC leakage (Comment Code J)” value is reported as “J (Melamine formaldehyde PMC leakage less than or equal to 5%)”.

`CC1=CCCC2(C)CCC3CC12OC3(C)C` (stereo not shown) [Material 726]: the “Melamine formaldehyde PMC leakage (Comment Code J)” value is on record as “J (Melamine formaldehyde PMC leakage less than or equal to 5%)”.

For the compound `CC(=O)OC(C)CCC=C(C)CCC=C(C)C` (racemic) [Material 881], the “Melamine formaldehyde PMC leakage (Comment Code J)” value is “J (Melamine formaldehyde PMC leakage less than or equal to 5%)”.

As for `CC(=O)O[C@]1(C)CC[C@@]23C[C@@H]1C(C)(C)[C@@H]2CC[C@H]3C` [Material 567], the “Melamine formaldehyde PMC leakage (Comment Code J)” value is recorded as “J (Melamine formaldehyde PMC leakage less than or equal to 5%)”.

On to `CCCC(=O)OCCc1ccccc1` [Material 831], for which the “Melamine formaldehyde PMC leakage (Comment Code J)” value is listed as “J (Melamine formaldehyde PMC leakage less than or equal to 5%)”.

Consider `CC(C)c1ccc(CCC=O)cc1` [Material 826], for which the “Melamine formaldehyde PMC leakage (Comment Code J)” value is “J (Melamine formaldehyde PMC leakage less than or equal to 5%)”.

As for `CC(C)(C=O)CC1=CCC2CC1C2(C)C` (stereo not shown) [Material 925], the “Melamine formaldehyde PMC leakage (Comment Code J)” value is listed as “J (Melamine formaldehyde PMC leakage less than or equal to 5%)”.

On to `CC1=CC2C(C(C)C)CCC(C)(O)C2CC1` (stereo not shown) [Material 716], for which the “Melamine formaldehyde PMC leakage (Comment Code J)” value is on record as “J (Melamine formaldehyde PMC leakage less than or equal to 5%)”.

As for `CC1=CC2CC(C3OCCO3)C1CC2C(C)C` (stereo not shown) [Material 912], the “Melamine formaldehyde PMC leakage (Comment Code J)” value is “J (Melamine formaldehyde PMC leakage less than or equal to 5%)”.

`CC(C)CCCC(C)CCCC(C)C=O` (stereo not shown) [Material 741]: the “Melamine formaldehyde PMC leakage (Comment Code J)” value is “J (Melamine formaldehyde PMC leakage less than or equal to 5%)”.

The series is the same for the next values; noted with them: class code letter within Comment Code.
`CCCCCCOC(=O)CCCCC` [Material 267]: the “Melamine formaldehyde PMC leakage (Comment Code J)” value is “J (Melamine formaldehyde PMC leakage less than or equal to 5%)”.

In the case of `COC(OC)C(C)c1ccccc1` (stereo not shown) [Material 256], the “Melamine formaldehyde PMC leakage (Comment Code J)” value is reported as “J (Melamine formaldehyde PMC leakage less than or equal to 5%)”.

Turning to `CC/C=C\CCOC(=O)c1ccccc1O` [Material 537], the “Melamine formaldehyde PMC leakage (Comment Code J)” value is recorded as “J (Melamine formaldehyde PMC leakage less than or equal to 5%)”.

`CCCCCCCC1CCCC1=O` (stereo not shown) [Material 362]: the “Melamine formaldehyde PMC leakage (Comment Code J)” value was “J (Melamine formaldehyde PMC leakage less than or equal to 5%)”.

As to `CCCCCCCCCCCC(=O)OCCC(C)C` [Material 238], the “Melamine formaldehyde PMC leakage (Comment Code J)” value is listed as “J (Melamine formaldehyde PMC leakage less than or equal to 5%)”.

In the case of `C=CC(C)(O)CCC=C(C)CCC=C(C)CCC=C(C)C` (stereo not shown) [Material 303], the “Melamine formaldehyde PMC leakage (Comment Code J)” value was “J (Melamine formaldehyde PMC leakage less than or equal to 5%)”.

Consider `CCCCCCCC(=O)OCc1ccco1` [Material 336], for which the “Melamine formaldehyde PMC leakage (Comment Code J)” value is “J (Melamine formaldehyde PMC leakage less than or equal to 5%)”.

As to `CCCCCCCCCC(C)C(OC)OC` (stereo not shown) [Material 101], the “Melamine formaldehyde PMC leakage (Comment Code J)” value is “J (Melamine formaldehyde PMC leakage less than or equal to 5%)”.

Regarding `Cc1cccc(Oc2ccccc2)c1` [Material 114], the “Melamine formaldehyde PMC leakage (Comment Code J)” value was “J (Melamine formaldehyde PMC leakage less than or equal to 5%)”.

Consider `C=CC1(C)Cc2occ(C)c2CC1C(=C)C` (stereo not shown) [Material 488], for which the “Melamine formaldehyde PMC leakage (Comment Code J)” value is given as “J (Melamine formaldehyde PMC leakage less than or equal to 5%)”.

In the case of `CCC(=O)OCC=Cc1ccccc1` [Material 548], the “Melamine formaldehyde PMC leakage (Comment Code J)” value is given as “J (Melamine formaldehyde PMC leakage less than or equal to 5%)”.

For `C=CCCCCCCCCC#N` [Material 352], the “Melamine formaldehyde PMC leakage (Comment Code J)” value is given as “J (Melamine formaldehyde PMC leakage less than or equal to 5%)”.

`O=C1CCCCCCCCCC/C=C/CCO1` [Material 289]: the “Melamine formaldehyde PMC leakage (Comment Code J)” value is listed as “J (Melamine formaldehyde PMC leakage less than or equal to 5%)”.

Regarding `COc1ccc(C(=O)c2ccccc2)c(O)c1` [Material 13], the “Melamine formaldehyde PMC leakage (Comment Code J)” value is recorded as “J (Melamine formaldehyde PMC leakage less than or equal to 5%)”.

In the case of `CCOC(=O)C1OC1c1ccccc1` (stereo not shown) [Material 407], the “Melamine formaldehyde PMC leakage (Comment Code J)” value is “J (Melamine formaldehyde PMC leakage less than or equal to 5%)”.

Take `CC1COC(C)(c2ccc3c(c2)C(C)(C)CCC3(C)C)O1` (stereo not shown) [Material 2]: the “Melamine formaldehyde PMC leakage (Comment Code J)” value is recorded as “J (Melamine formaldehyde PMC leakage less than or equal to 5%)”.

With `C=CCCC(=O)/C=C/C1C(C)=CCCC1(C)C` (stereo not shown) [Material 559], the “Melamine formaldehyde PMC leakage (Comment Code J)” value is “J (Melamine formaldehyde PMC leakage less than or equal to 5%)”.

For the compound `CC1=CC2C(CC1)C(C)=CCCC2(C)C` (stereo not shown) [Material 325], the “Melamine formaldehyde PMC leakage (Comment Code J)” value is reported as “J (Melamine formaldehyde PMC leakage less than or equal to 5%)”.

Consider `CC1=CC2CC(C=O)C1CC2C(C)C` (stereo not shown) [Material 142], for which the “Melamine formaldehyde PMC leakage (Comment Code J)” value is recorded as “J (Melamine formaldehyde PMC leakage less than or equal to 5%)”.

In the case of `CCCCCCCCCC/C=C\C#N` [Material 11], the “Melamine formaldehyde PMC leakage (Comment Code J)” value is “J (Melamine formaldehyde PMC leakage less than or equal to 5%)”.

Turning to `CCCCCCC1=CCCC1=O` [Material 209], the “Melamine formaldehyde PMC leakage (Comment Code J)” value is listed as “J (Melamine formaldehyde PMC leakage less than or equal to 5%)”.

With `CC(=O)OC1(C)CCC(=C(C)C)CC1` (stereo not shown) [Material 317], the “Melamine formaldehyde PMC leakage (Comment Code J)” value is “J (Melamine formaldehyde PMC leakage less than or equal to 5%)”.

As for `CC1CCC(C(C)(C)O)CC2=C1CCC2C` (stereo not shown) [Material 292], the “Melamine formaldehyde PMC leakage (Comment Code J)” value is on record as “J (Melamine formaldehyde PMC leakage less than or equal to 5%)”.

On to `CC(C)=CCCC(C)=CC1OCC(C)O1` (stereo not shown) [Material 519], for which the “Melamine formaldehyde PMC leakage (Comment Code J)” value was “J (Melamine formaldehyde PMC leakage less than or equal to 5%)”.

The same series, now with this note: code J of the Comment Code column, Table 1.
With `COC(=O)OC1CC/C=C\CCC1` (stereo not shown) [Material 1139], the “Comment Code: Melamine formaldehyde PMC leakage” value is given as “J (Melamine formaldehyde PMC leakage less than or equal to 5%)”.

Consider `COC1C=CC2C3CCC(C3)C12` (stereo not shown) [Material 1120], for which the “Comment Code: Melamine formaldehyde PMC leakage” value is on record as “J (Melamine formaldehyde PMC leakage less than or equal to 5%)”.

In the case of `CC1CC(C)(c2ccccc2)OC(C)O1` (stereo not shown) [Material 1126], the “Comment Code: Melamine formaldehyde PMC leakage” value was “J (Melamine formaldehyde PMC leakage less than or equal to 5%)”.

For `COc1cc(CCC(C)=O)ccc1O` [Material 1146], the “Comment Code: Melamine formaldehyde PMC leakage” value is recorded as “J (Melamine formaldehyde PMC leakage less than or equal to 5%)”.

As to `CC1(C)C2CCC3(C2)C1C1(CCC3(C)C)OCCO1` (stereo not shown) [Material 1145], the “Comment Code: Melamine formaldehyde PMC leakage” value is listed as “J (Melamine formaldehyde PMC leakage less than or equal to 5%)”.

Staying with this series, now noted: code letter J.
Turning to `CCCOC(=O)[C@H](C)OC(C)(C)CC` [Material 1030], the “Comment Code: Melamine formaldehyde PMC leakage” value is “J (Melamine formaldehyde PMC leakage less than or equal to 5%)”.

As for `CC(=CCCC1(C)C2CC3C(C2)C31C)CO` (stereo not shown) [Material 694], the “Comment Code: Melamine formaldehyde PMC leakage” value is reported as “J (Melamine formaldehyde PMC leakage less than or equal to 5%)”.

Consider `CC1CCOC(c2ccccc2)C1` (stereo not shown) [Material 420], for which the “Comment Code: Melamine formaldehyde PMC leakage” value is “J (Melamine formaldehyde PMC leakage less than or equal to 5%)”.

For the compound `C=CCOC(=O)COC1CCCCC1` [Material 918], the “Comment Code: Melamine formaldehyde PMC leakage” value was “J (Melamine formaldehyde PMC leakage less than or equal to 5%)”.

For the compound `COC1(C)CCC23CC1C(C)(C)C2CCC3C` (stereo not shown) [Material 565], the “Comment Code: Melamine formaldehyde PMC leakage” value was “J (Melamine formaldehyde PMC leakage less than or equal to 5%)”.

Consider `C=CC1(C)Cc2occ(C)c2CC1C(=C)C` (stereo not shown) [Material 488], for which the “Comment Code: Melamine formaldehyde PMC leakage” value is reported as “J (Melamine formaldehyde PMC leakage less than or equal to 5%)”.

As for `CC1=CCCC2(C)CCC3CC12OC3(C)C` (stereo not shown) [Material 726], the “Comment Code: Melamine formaldehyde PMC leakage” value was “J (Melamine formaldehyde PMC leakage less than or equal to 5%)”.

With `CC(=O)O[C@]1(C)CC[C@@]23C[C@@H]1C(C)(C)[C@@H]2CC[C@H]3C` [Material 567], the “Comment Code: Melamine formaldehyde PMC leakage” value is on record as “J (Melamine formaldehyde PMC leakage less than or equal to 5%)”.

For `CC1COC(C)(c2ccc3c(c2)C(C)(C)CCC3(C)C)O1` (stereo not shown) [Material 2], the “Comment Code: Melamine formaldehyde PMC leakage” value is recorded as “J (Melamine formaldehyde PMC leakage less than or equal to 5%)”.

Turning to `CC(=O)O.CCOc1cc(C=O)ccc1O` [Material 379], the “Comment Code: Melamine formaldehyde PMC leakage” value is “J (Melamine formaldehyde PMC leakage less than or equal to 5%)”.

As for `CCCCCCCC(=O)OCC` [Material 387], the “Comment Code: Melamine formaldehyde PMC leakage” value is listed as “J (Melamine formaldehyde PMC leakage less than or equal to 5%)”.

In the case of `CC1(C)C2CCC3(C2)C1C1(CCC3(C)C)OCCO1` (stereo not shown) [Material 1145], the “Comment Code: Melamine formaldehyde PMC leakage” value is “J (Melamine formaldehyde PMC leakage less than or equal to 5%)”.

Take `C=CC(C)(C#N)Cc1ccccc1` (stereo not shown) [Material 504]: the “Comment Code: Melamine formaldehyde PMC leakage” value is “J (Melamine formaldehyde PMC leakage less than or equal to 5%)”.

For `CCc1ccccc1CC(C)(C)C=O` [Material 354], the “Comment Code: Melamine formaldehyde PMC leakage” value is “J (Melamine formaldehyde PMC leakage less than or equal to 5%)”.
